# From patent publication US9126985B2, “Tetra- and pentasubstituted benzimidazolium compounds” (Boehringer Ingelheim International GmbH, priority 2013, dated 2015)
# Protein sequences, listed by entry. Tags and fused reporters are not part of them.
# UniProt Q61180, whole entry: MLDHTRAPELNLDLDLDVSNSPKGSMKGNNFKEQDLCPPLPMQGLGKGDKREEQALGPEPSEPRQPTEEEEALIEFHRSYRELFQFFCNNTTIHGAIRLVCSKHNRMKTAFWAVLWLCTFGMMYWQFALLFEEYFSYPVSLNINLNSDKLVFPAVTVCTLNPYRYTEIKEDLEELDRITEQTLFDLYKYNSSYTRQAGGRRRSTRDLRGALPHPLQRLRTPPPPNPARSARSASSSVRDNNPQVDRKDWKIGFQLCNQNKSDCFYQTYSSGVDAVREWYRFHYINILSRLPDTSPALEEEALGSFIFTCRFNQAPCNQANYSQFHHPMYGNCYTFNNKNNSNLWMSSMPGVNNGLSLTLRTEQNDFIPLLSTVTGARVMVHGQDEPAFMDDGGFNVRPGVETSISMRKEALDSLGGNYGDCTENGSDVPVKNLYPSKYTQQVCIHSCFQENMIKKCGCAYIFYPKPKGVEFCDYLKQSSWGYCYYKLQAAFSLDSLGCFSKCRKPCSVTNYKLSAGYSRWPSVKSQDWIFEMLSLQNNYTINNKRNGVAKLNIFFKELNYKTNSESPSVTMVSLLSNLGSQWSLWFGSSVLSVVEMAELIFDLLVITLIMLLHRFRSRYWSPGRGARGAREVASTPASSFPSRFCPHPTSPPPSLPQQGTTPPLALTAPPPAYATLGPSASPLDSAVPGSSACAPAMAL
# UniProt Q9WU38, whole entry: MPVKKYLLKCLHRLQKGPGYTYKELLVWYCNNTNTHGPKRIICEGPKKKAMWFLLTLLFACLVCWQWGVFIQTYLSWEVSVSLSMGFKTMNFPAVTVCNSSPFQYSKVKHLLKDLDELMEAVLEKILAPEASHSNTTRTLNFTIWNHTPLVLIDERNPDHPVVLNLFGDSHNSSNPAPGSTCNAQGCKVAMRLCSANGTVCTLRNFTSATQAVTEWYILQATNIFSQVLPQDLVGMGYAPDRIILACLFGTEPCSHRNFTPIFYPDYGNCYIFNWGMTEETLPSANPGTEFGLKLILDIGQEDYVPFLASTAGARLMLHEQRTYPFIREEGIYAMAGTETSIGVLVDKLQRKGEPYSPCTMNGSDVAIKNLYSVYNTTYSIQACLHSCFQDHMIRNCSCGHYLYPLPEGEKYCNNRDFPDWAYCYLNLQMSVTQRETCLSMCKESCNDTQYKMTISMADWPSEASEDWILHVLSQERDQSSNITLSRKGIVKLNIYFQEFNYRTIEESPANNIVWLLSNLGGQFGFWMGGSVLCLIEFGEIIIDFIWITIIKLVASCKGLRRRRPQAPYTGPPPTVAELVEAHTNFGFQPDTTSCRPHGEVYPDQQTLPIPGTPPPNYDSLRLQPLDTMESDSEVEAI
# UniProt Q9WU39, whole entry: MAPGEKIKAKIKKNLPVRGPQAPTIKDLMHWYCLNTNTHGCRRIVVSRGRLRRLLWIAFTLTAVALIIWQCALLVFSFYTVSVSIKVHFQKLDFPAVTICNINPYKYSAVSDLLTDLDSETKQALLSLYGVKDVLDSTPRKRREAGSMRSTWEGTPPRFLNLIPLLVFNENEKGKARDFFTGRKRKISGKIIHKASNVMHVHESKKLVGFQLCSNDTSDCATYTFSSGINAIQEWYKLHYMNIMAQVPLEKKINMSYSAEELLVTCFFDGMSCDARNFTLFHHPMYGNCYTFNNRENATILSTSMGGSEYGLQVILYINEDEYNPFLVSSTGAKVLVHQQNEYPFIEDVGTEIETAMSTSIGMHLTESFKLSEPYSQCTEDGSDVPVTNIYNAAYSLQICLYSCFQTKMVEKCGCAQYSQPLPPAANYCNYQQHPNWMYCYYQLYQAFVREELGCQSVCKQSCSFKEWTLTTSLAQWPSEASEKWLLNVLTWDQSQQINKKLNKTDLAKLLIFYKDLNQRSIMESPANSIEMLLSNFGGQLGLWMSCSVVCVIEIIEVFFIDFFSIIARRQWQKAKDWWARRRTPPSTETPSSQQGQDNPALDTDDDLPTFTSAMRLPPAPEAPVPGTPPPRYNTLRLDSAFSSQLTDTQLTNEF
# Structures were worked out from names or drawings and are uncertain.
# Key:
# [1] = biological target: ENaC (Epithelial Sodium Channel) (Mus musculus, UniProt Q61180+Q9WU38+Q9WU39); test: Ussing Chamber assay: inhibition of amiloride sensitive short circuit current in M-1 cells; settings: Mouse kidney M-1 cells on transwell filters, compound added to apical solution, 37° C.
# Procedure: Mouse kidney M-1 cells were cultivated in DMEM containing 5% FCS and 5 μM dexamethasone for 10 to 12 days on polyester transwell filters. Filters were inserted into a teflon-coated well-plate which fit into the ussing chamber system. Prior to measurement the medium of M-1 cells was replaced with Caco-2 transport buffer (Invitrogen, Germany). During measurements, the Ussing chamber temperature was kept at 37° C. Short circuit currents (I_sc) were measured in the voltage-clamp mode with the software package Lab View for data acquisition and analysis. The transepithelial electrical resistance (TEER) was determined by the application of voltage steps of ±5 mV every 5 sec. Compounds were administered at a final concentration of 3 μM or at increasing concentrations (1-3-10 μM) to the apical solution. At the end of each experiment the amiloride sensitive I_SC was measured by adding 3 μM amiloride to the apical compartment. Results are expressed as inhibition in percent of the amiloride effect or as IC50.
# With the example compounds given above, the following IC50 values were determined in the Ussing Chamber assay: […]
# CALU-3 cells = test: Permeability in CALU-3 cells; settings: CALU-3 cell monolayers, pH 7.4, 37° C., 10 μM compound; for Papp, AB: apical-to-basal; for Papp, BA: basal-to-apical
# Procedure: Permeability in CALU-3 Cells:
# Permeability measurements across polarized, confluent CALU-3 cell monolayers grown on permeable filter supports are used to provide information on the potential of a compound to pass the lung epithelium. Apparent permeability coefficients (Papp) of the compounds across the CALU-3 cell monolayers are measured (pH 7.4, 37° C.) in apical-to-basal (AB) and basal-to-apical (BA) transport direction.
# CALU-3 cells (1-2×10^5 cells/1 cm^2 area) are seeded on filter inserts (Costar transwell polycarbonate filters, 0.4 μm pore size) and cultured (for 10-12 days DMEM) until tight monolayers are formed. Compounds of interest are dissolved in appropriate solvent (DMSO, 10 mM stock solution). Stock solutions are diluted with HTP-4 buffer (128.13 mM NaCl, 5.36 mM KCl, 1 mM MgSO4, 1.8 mM CaCl2, 4.17 mM NaHCO3, 1.19 mM Na2HPO4×7H2O, 0.41 mM NaH2PO4×H2O, 15 mM HEPES, 20 mM glucose, 0.25% BSA, pH 7.4) to prepare the transport solutions (10 μM compound, final DMSO<=0.5%). The transport solution (TL) is applied to the apical or basolateral donor side for measuring A-B or B-A permeability (3 filter replicates), respectively. The receiver side contains the same buffer as the donor side. After 30 min of accommodation, samples are collected at the start t0=0 min and at the end of the experiment tn=90 min from the donor and at 0, 30, 60, and 90 min also from the receiver chamber. Volume removed is replenished by HTP-4 buffer. The compound concentration in the samples is measured by HPLC-MS/MS or scintillation counting. The permeability coefficient (Papp) and efflux ratio are calculated according to: Papp [cm/s]=(concentration receiver [nM]*volume receiver [mL]/time interval [sec])*(1/filter area)*(1/donor concentration [nM])
# With example compounds given above, the following permeability values were determined in the CALU-3 cells assay: […]
smiles,measurement,setting,value
CCOP(=O)(CCCOc1ccc2c(c1)n(CC)c(CNC(=O)c1nc(Cl)c(N)nc1N)[n+]2CCCC#N)OCC,IC50,[1]; tested form: trifluoroacetate,5 nM
same,"Papp, AB",CALU-3 cells; tested form: trifluoroacetate,0.1 10^−6 cm/s
same,"Papp, BA",CALU-3 cells; tested form: trifluoroacetate,0.4 10^−6 cm/s
CCNC(=O)COc1ccc2c(c1)n(CC)c(CNC(=O)c1nc(Cl)c(N)nc1N)[n+]2C1CCOCC1,IC50,[1]; tested form: formate,2 nM
same,"Papp, AB",CALU-3 cells; tested form: formate,<0.5 10^−6 cm/s
same,"Papp, BA",CALU-3 cells; tested form: formate,0.2 10^−6 cm/s
CCNC(=O)COc1ccc2c(c1)[n+](C1CCOCC1)c(CNC(=O)c1nc(Cl)c(N)nc1N)n2CC,IC50,[1]; tested form: formate,1 nM
CCOP(=O)(O)CCCOc1ccc2c(c1)n(CC)c(CNC(=O)c1nc(Cl)c(N)nc1N)[n+]2CCCC#N,IC50,[1]; tested form: trifluoroacetate,19 nM
same,"Papp, AB",CALU-3 cells; tested form: trifluoroacetate,0.5 10^−6 cm/s
same,"Papp, BA",CALU-3 cells; tested form: trifluoroacetate,0.1 10^−6 cm/s
CCn1c(CNC(=O)c2nc(Cl)c(N)nc2N)[n+](CCOCCOCCO)c2ccc(OCP(C)(C)=O)cc21,IC50,[1]; tested form: trifluoroacetate,13 nM
same,"Papp, AB",CALU-3 cells; tested form: trifluoroacetate,0.4 10^−6 cm/s
same,"Papp, BA",CALU-3 cells; tested form: trifluoroacetate,0.1 10^−6 cm/s
